Measured values taken from patent US6350580.

Protein sequences, listed by entry. Tags and fused reporters are not part of them. Lines headed by an entry give the natural chain unless they say otherwise; changes in a name come on top.
UniProt O93634: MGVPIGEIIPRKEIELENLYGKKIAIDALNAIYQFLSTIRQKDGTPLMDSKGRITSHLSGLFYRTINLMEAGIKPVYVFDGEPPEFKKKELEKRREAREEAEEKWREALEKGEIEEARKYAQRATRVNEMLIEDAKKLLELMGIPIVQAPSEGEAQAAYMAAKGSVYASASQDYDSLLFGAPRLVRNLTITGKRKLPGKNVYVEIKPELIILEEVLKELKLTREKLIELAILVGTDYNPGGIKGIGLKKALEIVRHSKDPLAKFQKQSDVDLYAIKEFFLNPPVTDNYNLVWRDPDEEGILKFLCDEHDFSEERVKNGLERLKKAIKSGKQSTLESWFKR

Target: Pfu FEN-1 (CBP-tagged) (Pyrococcus furiosus) (UniProt O93634)
Assay: enzyme reaction in vitro
Conditions: control; less cleavage than template 2; 50 C, Mg2+; purified recombinant protein; protein details: N-terminal CBP (pCAL-n-EK, Stratagene); label: 5' 33P; single-stranded DNA

“AAAATAAATAAAAAAAATACTGTTGGGAAGGGCGATCGGTGCG [Template 1 (Heltest4)]” was tested, and the “activity on this sequence” value was “less active”.

The comparison behind a weaker result is the experiment's own reference, which may not be listed here.
